Experimental data reported in PMC8201613.
Changes are numbered by the printed parent chain. No constants are given. Whether binding was seen depends on the method and setting. In cells and extracts the contact can be indirect. These calls come from enrichment with a bait or labelling near it, and not all partners need be listed. No binding means not detected with the bait. Sequences can lack the tags named with a protein.

The chains behind the UniProt entries cited, without tags or fusion partners. Residues count along the entry.
UniProt P38646, residues 47-679: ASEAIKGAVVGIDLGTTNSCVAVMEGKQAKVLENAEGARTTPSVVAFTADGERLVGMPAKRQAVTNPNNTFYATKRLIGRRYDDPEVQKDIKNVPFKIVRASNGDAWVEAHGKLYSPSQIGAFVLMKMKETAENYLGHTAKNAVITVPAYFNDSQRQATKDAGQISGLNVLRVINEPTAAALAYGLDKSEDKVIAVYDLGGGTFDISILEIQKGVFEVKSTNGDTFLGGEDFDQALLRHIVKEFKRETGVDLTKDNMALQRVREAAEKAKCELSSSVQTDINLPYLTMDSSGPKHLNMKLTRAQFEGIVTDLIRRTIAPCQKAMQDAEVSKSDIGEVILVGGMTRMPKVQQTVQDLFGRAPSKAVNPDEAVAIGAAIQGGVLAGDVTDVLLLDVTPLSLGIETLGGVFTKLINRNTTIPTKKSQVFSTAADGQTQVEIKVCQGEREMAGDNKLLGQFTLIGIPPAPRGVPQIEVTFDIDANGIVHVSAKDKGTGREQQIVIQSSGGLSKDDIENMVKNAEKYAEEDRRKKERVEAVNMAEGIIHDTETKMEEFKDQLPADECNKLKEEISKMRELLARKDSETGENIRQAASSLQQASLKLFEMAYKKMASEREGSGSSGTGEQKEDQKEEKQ
UniProt Q14571: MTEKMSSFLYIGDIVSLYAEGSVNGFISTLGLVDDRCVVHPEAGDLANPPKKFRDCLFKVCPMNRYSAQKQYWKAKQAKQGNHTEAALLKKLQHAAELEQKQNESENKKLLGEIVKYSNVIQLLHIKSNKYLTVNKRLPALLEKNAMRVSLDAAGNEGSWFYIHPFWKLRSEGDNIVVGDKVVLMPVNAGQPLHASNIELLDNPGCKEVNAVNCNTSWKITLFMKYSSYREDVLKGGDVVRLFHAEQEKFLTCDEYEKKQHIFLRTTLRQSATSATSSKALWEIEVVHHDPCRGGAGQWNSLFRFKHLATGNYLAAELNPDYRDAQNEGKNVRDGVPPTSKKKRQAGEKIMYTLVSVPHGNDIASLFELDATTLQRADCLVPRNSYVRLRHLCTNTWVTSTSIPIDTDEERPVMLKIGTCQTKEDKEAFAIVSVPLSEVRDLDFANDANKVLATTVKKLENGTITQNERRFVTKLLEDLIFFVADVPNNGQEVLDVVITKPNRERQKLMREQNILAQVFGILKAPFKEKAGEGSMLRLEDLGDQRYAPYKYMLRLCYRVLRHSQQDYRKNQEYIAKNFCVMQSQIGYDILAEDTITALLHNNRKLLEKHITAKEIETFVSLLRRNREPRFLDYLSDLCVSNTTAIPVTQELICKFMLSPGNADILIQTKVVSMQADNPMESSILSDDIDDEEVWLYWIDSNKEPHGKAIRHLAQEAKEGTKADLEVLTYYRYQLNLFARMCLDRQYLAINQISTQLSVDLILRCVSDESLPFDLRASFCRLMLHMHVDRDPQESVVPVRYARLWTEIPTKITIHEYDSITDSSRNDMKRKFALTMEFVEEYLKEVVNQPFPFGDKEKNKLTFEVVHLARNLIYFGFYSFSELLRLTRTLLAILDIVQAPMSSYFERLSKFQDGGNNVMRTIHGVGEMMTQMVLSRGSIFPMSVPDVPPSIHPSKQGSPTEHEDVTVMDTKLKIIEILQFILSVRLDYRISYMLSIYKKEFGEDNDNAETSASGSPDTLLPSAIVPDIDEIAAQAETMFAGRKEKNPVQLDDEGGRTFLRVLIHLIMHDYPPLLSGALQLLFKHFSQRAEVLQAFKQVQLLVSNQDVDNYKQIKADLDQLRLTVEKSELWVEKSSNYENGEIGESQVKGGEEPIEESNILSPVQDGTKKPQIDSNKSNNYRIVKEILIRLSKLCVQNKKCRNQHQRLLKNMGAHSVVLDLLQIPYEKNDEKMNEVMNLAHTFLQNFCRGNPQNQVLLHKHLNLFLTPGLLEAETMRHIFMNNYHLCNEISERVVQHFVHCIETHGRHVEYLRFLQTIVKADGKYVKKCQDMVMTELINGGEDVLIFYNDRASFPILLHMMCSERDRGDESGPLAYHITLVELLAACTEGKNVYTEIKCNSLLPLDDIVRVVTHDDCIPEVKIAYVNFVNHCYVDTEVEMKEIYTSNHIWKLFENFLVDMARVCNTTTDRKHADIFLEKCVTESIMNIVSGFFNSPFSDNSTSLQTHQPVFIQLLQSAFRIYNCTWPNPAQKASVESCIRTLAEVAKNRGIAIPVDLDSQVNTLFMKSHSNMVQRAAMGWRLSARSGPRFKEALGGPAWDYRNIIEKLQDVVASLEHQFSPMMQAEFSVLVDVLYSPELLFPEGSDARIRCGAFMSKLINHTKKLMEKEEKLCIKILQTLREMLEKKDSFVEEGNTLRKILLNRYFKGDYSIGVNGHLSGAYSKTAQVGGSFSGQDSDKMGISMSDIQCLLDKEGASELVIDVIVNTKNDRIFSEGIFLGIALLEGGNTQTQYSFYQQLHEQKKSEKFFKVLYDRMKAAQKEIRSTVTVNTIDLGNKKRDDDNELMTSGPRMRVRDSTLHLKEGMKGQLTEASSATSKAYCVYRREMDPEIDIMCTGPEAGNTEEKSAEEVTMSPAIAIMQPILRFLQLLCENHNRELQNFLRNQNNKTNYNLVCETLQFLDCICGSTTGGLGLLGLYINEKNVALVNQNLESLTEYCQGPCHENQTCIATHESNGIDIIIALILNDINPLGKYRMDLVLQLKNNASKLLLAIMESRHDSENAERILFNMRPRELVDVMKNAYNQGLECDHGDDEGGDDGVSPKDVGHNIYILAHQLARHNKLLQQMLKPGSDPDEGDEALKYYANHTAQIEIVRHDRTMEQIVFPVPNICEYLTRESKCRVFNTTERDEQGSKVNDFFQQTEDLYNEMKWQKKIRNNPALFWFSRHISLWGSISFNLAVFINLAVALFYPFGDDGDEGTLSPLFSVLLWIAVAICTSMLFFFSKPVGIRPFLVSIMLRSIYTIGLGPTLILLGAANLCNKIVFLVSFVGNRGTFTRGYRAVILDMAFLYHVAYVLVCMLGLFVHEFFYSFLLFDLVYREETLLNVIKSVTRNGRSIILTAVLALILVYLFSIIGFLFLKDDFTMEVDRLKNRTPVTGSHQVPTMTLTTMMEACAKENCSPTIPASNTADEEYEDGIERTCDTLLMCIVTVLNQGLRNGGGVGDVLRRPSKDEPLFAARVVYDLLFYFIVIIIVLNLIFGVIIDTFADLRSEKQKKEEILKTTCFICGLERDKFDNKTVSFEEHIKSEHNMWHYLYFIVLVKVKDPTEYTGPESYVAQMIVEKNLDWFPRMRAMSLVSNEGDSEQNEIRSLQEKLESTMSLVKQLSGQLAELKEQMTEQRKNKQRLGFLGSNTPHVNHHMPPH
UniProt P21796: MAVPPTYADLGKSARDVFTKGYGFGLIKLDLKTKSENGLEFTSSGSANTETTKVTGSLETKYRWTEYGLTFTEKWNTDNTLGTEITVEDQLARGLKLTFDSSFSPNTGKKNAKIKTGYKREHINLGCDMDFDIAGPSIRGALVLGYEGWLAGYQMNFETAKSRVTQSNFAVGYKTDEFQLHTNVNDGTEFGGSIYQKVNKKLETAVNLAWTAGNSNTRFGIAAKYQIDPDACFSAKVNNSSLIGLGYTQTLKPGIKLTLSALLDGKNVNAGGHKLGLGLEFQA
UniProt Q14573: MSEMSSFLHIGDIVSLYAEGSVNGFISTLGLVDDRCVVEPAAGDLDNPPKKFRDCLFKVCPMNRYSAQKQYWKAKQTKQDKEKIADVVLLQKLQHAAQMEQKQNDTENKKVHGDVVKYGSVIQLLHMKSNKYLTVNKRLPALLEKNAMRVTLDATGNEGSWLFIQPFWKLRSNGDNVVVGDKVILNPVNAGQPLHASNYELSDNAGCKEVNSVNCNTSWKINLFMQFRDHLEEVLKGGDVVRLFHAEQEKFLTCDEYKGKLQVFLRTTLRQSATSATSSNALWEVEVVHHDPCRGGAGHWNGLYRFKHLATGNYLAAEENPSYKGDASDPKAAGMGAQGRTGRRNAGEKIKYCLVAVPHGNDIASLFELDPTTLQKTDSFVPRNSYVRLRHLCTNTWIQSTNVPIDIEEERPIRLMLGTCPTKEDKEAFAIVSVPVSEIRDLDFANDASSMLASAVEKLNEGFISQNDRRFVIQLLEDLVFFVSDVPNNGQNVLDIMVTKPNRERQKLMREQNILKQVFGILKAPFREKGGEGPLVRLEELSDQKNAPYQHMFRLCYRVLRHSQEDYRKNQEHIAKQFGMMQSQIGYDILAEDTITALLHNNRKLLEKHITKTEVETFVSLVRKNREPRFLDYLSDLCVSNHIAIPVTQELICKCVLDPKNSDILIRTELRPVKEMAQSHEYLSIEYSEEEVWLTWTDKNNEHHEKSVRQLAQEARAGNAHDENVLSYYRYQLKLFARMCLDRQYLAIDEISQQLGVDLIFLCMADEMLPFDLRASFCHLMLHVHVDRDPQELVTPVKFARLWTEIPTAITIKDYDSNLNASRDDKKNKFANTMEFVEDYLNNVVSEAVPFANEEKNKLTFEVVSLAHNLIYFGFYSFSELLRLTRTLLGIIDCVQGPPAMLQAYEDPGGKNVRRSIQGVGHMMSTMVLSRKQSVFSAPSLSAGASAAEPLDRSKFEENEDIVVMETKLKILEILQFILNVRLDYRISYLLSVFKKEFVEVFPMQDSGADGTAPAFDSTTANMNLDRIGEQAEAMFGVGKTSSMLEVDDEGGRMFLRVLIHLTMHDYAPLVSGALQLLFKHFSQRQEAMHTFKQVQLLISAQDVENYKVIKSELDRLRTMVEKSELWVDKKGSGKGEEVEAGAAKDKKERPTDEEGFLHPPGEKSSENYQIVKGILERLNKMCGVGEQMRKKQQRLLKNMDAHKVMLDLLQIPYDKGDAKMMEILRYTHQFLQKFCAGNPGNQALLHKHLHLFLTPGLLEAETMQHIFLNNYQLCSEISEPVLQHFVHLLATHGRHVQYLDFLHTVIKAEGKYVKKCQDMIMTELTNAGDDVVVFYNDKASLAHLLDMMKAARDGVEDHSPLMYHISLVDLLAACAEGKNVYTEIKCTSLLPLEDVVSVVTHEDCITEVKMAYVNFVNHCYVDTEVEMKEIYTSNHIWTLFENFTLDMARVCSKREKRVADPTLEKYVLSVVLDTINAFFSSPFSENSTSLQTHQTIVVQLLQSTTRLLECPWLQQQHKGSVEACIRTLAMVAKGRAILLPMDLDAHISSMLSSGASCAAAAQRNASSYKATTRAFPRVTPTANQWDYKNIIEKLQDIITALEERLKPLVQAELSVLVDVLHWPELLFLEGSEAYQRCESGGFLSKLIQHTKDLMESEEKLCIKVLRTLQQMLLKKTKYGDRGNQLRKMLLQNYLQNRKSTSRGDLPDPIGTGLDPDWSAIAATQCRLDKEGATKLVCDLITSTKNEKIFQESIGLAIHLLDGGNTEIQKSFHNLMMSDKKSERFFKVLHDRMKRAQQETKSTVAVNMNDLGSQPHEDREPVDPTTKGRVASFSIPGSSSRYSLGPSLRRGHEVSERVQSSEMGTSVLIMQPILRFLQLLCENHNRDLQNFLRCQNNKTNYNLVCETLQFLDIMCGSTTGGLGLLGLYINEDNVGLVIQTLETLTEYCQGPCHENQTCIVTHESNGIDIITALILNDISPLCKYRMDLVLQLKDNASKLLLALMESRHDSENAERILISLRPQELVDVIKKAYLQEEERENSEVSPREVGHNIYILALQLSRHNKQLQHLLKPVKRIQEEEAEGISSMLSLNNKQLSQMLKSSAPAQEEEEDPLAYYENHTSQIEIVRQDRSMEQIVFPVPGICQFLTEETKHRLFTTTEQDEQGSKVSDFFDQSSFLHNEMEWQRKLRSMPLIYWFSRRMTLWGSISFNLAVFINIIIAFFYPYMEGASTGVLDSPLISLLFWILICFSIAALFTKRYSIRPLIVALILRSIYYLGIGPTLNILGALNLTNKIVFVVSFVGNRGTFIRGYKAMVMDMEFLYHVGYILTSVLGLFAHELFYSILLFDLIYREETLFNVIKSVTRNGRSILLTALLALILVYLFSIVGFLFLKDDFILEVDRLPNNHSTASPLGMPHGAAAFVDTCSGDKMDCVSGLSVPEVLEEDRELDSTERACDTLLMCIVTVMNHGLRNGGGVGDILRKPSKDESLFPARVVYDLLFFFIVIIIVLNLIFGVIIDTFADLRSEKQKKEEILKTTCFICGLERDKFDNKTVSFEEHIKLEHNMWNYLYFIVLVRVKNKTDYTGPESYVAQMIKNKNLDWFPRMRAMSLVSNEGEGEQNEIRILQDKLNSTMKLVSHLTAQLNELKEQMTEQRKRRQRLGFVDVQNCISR

How the values were obtained:
[1] = target: T1, V5-TurboID-Bok^WT (mouse) (UniProt O35425); test: proximity labelling; TurboID fusion expressed in Bok KO HeLa cells, 50 uM biotin for 2 h, streptavidin magnetic beads, stringent washes, SDS-PAGE and mass spectrometry; 'strongly labeled' = present in multiple independent experiments and unique or 5x increased over non-transfected control
T1 sequence: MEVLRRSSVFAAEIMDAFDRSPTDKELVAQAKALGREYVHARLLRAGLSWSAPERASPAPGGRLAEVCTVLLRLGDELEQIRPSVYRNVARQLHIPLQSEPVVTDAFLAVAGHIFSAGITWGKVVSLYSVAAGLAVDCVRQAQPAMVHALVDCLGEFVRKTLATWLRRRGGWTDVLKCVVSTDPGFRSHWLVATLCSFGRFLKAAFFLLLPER

[2] = target: T2, V5-TurboID-Bok^L34G (mouse) (UniProt O35425); test: as above
T2 sequence: T1 sequence with L34G

Substance	binding [1]	binding [2]
Grp75 (from UniProt P38646 47-679)	no binding	
inositol 1,4,5-trisphosphate receptor type 2 (from UniProt Q14571 1-2701)		no binding
Vdac1 (from UniProt P21796 1-283)	no binding	
uridine monophosphate synthetase (from UniProt P11172 1-480) (enzyme)	no binding	
inositol 1,4,5-trisphosphate receptor type 3 (from UniProt Q14573 1-2671)		no binding
